# In publication PMC5996148:
# Sequences of proteins named here, by UniProt entry; tags and fusion partners are left off. A change or cut given only in a name is not applied to a line headed by its entry.
# UniProt P49773: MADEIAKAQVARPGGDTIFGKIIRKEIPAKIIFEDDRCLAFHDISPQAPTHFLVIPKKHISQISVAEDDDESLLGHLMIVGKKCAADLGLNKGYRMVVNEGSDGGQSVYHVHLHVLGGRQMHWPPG
# Several values for one entry are separate records, joined by “and”; a condition that tells them apart may be missing. Identical values can stand only once. The list shows a part of the results. For some of these results: The exact form of the protein is not confirmed.
# Assays:
# Test in all cases: protein microarray (ProtoArray v5.0), streptavidin-Alexa Fluor 647
# Settings in all cases: 3'-biotin; 20 mM Tris (pH 7.5), 5 mM MgCl2, 100 mM KCl, 0.1% Tween-20, A/T-rich and random oligonucleotide blockers; temperature not stated; high values mean tight binding
# [1] = test system: HERPUD1 (human)
# [2] = test system: HERV-FRD (human)
# [3] = test system: HEY1 (human)
# [4] = test system: HFE (human)
# [5] = test system: HGS (human)
# [6] = test system: HIATL2 (human)
# [7] = target: HINT1 (UniProt P49773)
# [8] = test system: HIP1 (human)
# [9] = test system: HIP2 (human)
# [10] = test system: HIPK4 (human)
sequence,measurement,setting,value
GGGAGGCTGAGGCAGG [G4-1 biotinylated (PQS2)],binding signal,[1],-0.332 z-score and -0.259 z-score
same,binding signal,[2],-0.283 z-score
same,binding signal,[3],-0.309 z-score
same,binding signal,[4],-0.342 z-score
same,binding signal,[5],-0.335 z-score
same,binding signal,[6],-0.3 z-score
same,binding signal,[7],-0.326 z-score
same,binding signal,[8],-0.35 z-score
same,binding signal,[9],-0.322 z-score
same,binding signal,[10],-0.253 z-score
